Record: PubChem BioAssay AID743121 (NCATS, 2013)

Assay: 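Knock-downs that sensitise breast cancer cells to camptothecin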 (primary screen)
System: MDA-MB-231 cells, a human breast cancer line
Knock-down reagent: single siRNA against human genes, 20 nM siRNA (0.8 pmol per well)
Time to read-out: 120 h (drug added 48 h after transfection, read 72 h later)
Conditions: camptothecin 20 nM (about EC30) for 72 h; vehicle 0.1% DMSO in parallel plates
Detection: 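Cell viability by ATP luminescence (CellTiter-Glo) as % of non-targeting siRNA wells, and the log2 ratio of viability without drug over viability with camptothecin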
Direction: log2 vehicle/camptothecin viability: higher = stronger sensitisation to camptothecin; viability with camptothecin and viability without drug: higher = more viable cells
Call rule: 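Each gene scored by redundant siRNA activity (RSA) over its individual siRNA ratios; a gene is called active at p < 0.001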
The whole screen tested about 26,000 reagents; this is a random part of them. Of all reagents, 167 (0.63%) got an active call. 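Calls are per gene from RSA p-values that are not deposited; an individual active-marked siRNA can sensitise only weakly.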 Reagents against one gene are numbered here.

| Target gene | reagent | log2 vehicle/camptothecin viability | viability with camptothecin (% of control) | viability without drug (% of control) | Call |
| --- | --- | --- | --- | --- | --- |
| RAD51B | 1 | 0.387 | 67.8 | 88.7 | inactive |
| RAD51B | 2 | -0.129 | 88.5 | 81 | inactive |
| RAD51B | 3 | -0.137 | 44.4 | 40.4 | inactive |
| RAD51B | 4 | -0.412 | 84.7 | 63.7 | inactive |
| CYP2D6 | 1 | 0.0775 | 93.5 | 98.6 | inactive |
| CYP2D6 | 2 | -0.103 | 90.5 | 84.2 | inactive |
| FGL2 | 1 | -0.298 | 99.4 | 80.9 | inactive |
| FGL2 | 2 | -0.154 | 36.6 | 32.9 | inactive |
| FGL2 | 3 | -0.265 | 109 | 90.3 | inactive |
| FGL2 | 4 | -0.568 | 71.4 | 48.1 | inactive |
| SUMO1P3 | 1 | -0.196 | 129 | 113 | inactive |
| SUMO1P3 | 2 | -0.103 | 108 | 101 | inactive |
| SUMO1P3 | 3 | -0.438 | 94.7 | 69.9 | inactive |
| SUMO1P3 | 4 | -0.174 | 108 | 95.3 | inactive |
| ABCG8 | 1 | -0.0209 | 94.4 | 93.1 | inactive |
| ABCG8 | 2 | -0.523 | 90.4 | 62.9 | inactive |
| ABCG8 | 3 | 0.595 | 59.1 | 89.2 | inactive |
| ABCG8 | 4 | -0.0555 | 56 | 53.9 | inactive |
| SOD1 | 1 | -0.337 | 99 | 78.4 | inactive |
| SOD1 | 2 | -0.231 | 66.5 | 56.7 | inactive |
| SOD1 | 3 | -0.112 | 97.7 | 90.4 | inactive |
| SOD1 | 4 | -0.316 | 79.3 | 63.7 | inactive |
| DNASE2 | 1 | -0.165 | 78.4 | 69.9 | inactive |
| DNASE2 | 2 | -0.191 | 118 | 103 | inactive |
| DNASE2 | 3 | -0.483 | 67.5 | 48.3 | inactive |
| DNASE2 | 4 | 0.244 | 47.2 | 55.9 | inactive |
| GABRD | 1 | -0.0233 | 56.6 | 55.7 | inactive |
| GABRD | 2 | -0.565 | 31.8 | 21.5 | inactive |
| GABRD | 3 | 0.433 | 11.7 | 15.7 | inactive |
| PIK3CD | 1 | 1.22 | 35.5 | 82.5 | inactive |
| PIK3CD | 2 | -0.361 | 89.3 | 69.5 | inactive |
| PIK3CD | 3 | -0.019 | 83.4 | 82.3 | inactive |
| PIK3CD | 4 | -0.283 | 66.8 | 54.9 | inactive |
| PELI2 | 1 | -0.308 | 94 | 75.9 | inactive |
| PELI2 | 2 | 0.155 | 78.9 | 87.9 | inactive |
| PELI2 | 3 | -0.249 | 47.2 | 39.7 | inactive |
| PELI2 | 4 | -0.377 | 83.2 | 64.1 | inactive |
| PKD2 | 1 | -0.258 | 90.4 | 75.6 | inactive |
| PKD2 | 2 | -0.137 | 91.3 | 83 | inactive |
| PKD2 | 3 | -0.178 | 107 | 94.5 | inactive |
| PKD2 | 4 | -0.00463 | 92.2 | 91.9 | inactive |
| TOP1MT | 1 | -0.158 | 95.1 | 85.3 | inactive |
| TOP1MT | 2 | 0.175 | 59.2 | 66.9 | inactive |
| TOP1MT | 3 | 0.313 | 58.6 | 72.7 | inactive |
| GAB2 | 1 | 0.0568 | 72.7 | 75.7 | inactive |
| GAB2 | 2 | -0.271 | 46.3 | 38.4 | inactive |
| GAB2 | 3 | 0.693 | 27.6 | 44.6 | inactive |
| GAB2 | 4 | -0.486 | 84.1 | 60 | inactive |
| GABRE | 1 | -0.31 | 114 | 92.1 | inactive |
| GABRE | 2 | -0.449 | 27.2 | 19.9 | inactive |
| GABRE | 3 | -0.149 | 56.9 | 51.3 | inactive |
| GABRE | 4 | -0.516 | 110 | 76.8 | inactive |
| CAMK2N1 | 1 | -0.141 | 104 | 94.3 | inactive |
| CAMK2N1 | 2 | -0.183 | 127 | 112 | inactive |
| CAMK2N1 | 3 | 0.34 | 70.9 | 89.8 | inactive |
| CAMK2N1 | 4 | -0.314 | 40.6 | 32.7 | inactive |
| DNMT3L | 1 | -0.385 | 59.1 | 45.3 | inactive |
| DNMT3L | 2 | 0.296 | 65.9 | 80.9 | inactive |
| DNMT3L | 3 | -0.391 | 62.4 | 47.6 | inactive |
| DNMT3L | 4 | -0.559 | 47.6 | 32.3 | inactive |
| KCNB1 | 1 | 0.317 | 71.9 | 89.5 | inactive |
| KCNB1 | 2 | -0.725 | 117 | 71 | inactive |
| KCNB1 | 3 | -0.256 | 76.9 | 64.4 | inactive |
| KCNB1 | 4 | 0.00831 | 75.4 | 75.9 | inactive |
| UBE2S | 1 | -0.42 | 47.7 | 35.6 | inactive |
| UBE2S | 2 | 0.299 | 80.7 | 99.3 | inactive |
| UBE2S | 3 | 0.708 | 21.9 | 35.8 | inactive |
| UBE2S | 4 | -0.156 | 108 | 97.3 | inactive |
| NEUROD2 | 1 | 0.115 | 74.9 | 81.1 | inactive |
| NEUROD2 | 2 | 1.13 | 27.7 | 60.6 | inactive |
| NEUROD2 | 3 | -0.0738 | 130 | 124 | inactive |
| NEUROD2 | 4 | -0.0121 | 76.2 | 75.6 | inactive |
| IL23A | 1 | 0.0668 | 103 | 108 | inactive |
| IL23A | 2 | -0.107 | 81.6 | 75.8 | inactive |
| IL23A | 3 | -0.105 | 51.1 | 47.5 | inactive |
| IL23A | 4 | -0.284 | 65.1 | 53.4 | inactive |
| PHF20L1 | 1 | -0.215 | 95 | 81.9 | inactive |
| PHF20L1 | 2 | 0.515 | 45.2 | 64.6 | inactive |
| PHF20L1 | 3 | -0.0924 | 97 | 91 | inactive |
| PHF20L1 | 4 | -0.892 | 38.3 | 20.6 | inactive |
| CAPN2 | 1 | -0.137 | 75.8 | 68.9 | inactive |
| CAPN2 | 2 | 0.13 | 66.7 | 73 | inactive |
| CAPN2 | 3 | 0.299 | 18.4 | 22.7 | inactive |
| LAMA5 | 1 | -0.268 | 57.5 | 47.7 | inactive |
| LAMA5 | 2 | 0.132 | 84.2 | 92.3 | inactive |
| LAMA5 | 3 | -0.179 | 71.3 | 63 | inactive |
| LAMA5 | 4 | -0.0149 | 95.1 | 94.1 | inactive |

Entries above whose target name begins with L or l:
| Target gene | reagent | log2 vehicle/camptothecin viability | viability with camptothecin (% of control) | viability without drug (% of control) | Call |
| --- | --- | --- | --- | --- | --- |
| LAMA5 | 1 | -0.268 | 57.5 | 47.7 | inactive |
| LAMA5 | 2 | 0.132 | 84.2 | 92.3 | inactive |
| LAMA5 | 3 | -0.179 | 71.3 | 63 | inactive |
| LAMA5 | 4 | -0.0149 | 95.1 | 94.1 | inactive |
